Experimental data: publication PMC11344278, “Structural and biochemical characterization of the C‐terminal region of the human RTEL1 helicase” (Protein Science : A Publication of the Protein Society, 2024)
The exact form of at least one protein or probe is not confirmed. For part of these data: The comparison behind a weaker result is the experiment's own reference, which may not be listed here. For part of these data: Where a protein sequence is shown, tags need not be part of it.

Columns and labels:
[1] = target: T1, RTEL1 HHD2 (Homo sapiens) (UniProt Q9NZ71); assay: fluorescence anisotropy; settings: 0.5 mM Mg2+, 20 mM Tris pH 7.5, 50 mM KCl, 0.5 mM MgCl2, 10% glycerol, 0.1% Igepal, 10 nM substrate, recombinant protein, protein details: N-terminal 6His-Trx removed by TEV, label: 5' 6-FAM
T1 sequence (looked up, limits assumed): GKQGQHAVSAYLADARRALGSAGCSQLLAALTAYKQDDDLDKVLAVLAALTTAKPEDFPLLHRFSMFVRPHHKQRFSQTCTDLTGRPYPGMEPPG

[2] = tested on: RTEL1 HHD1-2 (Homo sapiens); assay: fluorescence anisotropy; settings: 0.5 mM Mg2+, Kd given as NA (not applicable); 20 mM Tris pH 7.5, 50 mM KCl, 0.5 mM MgCl2, 10% glycerol, 0.1% Igepal, 10 nM substrate; recombinant protein; protein details: N-terminal 6His-Trx removed by TEV; label: 5' 6-FAM on strand 1 (D9); folded or branched DNA

CUACCCCCACCCUCACAACCUUUUUUUUUUUUUUU [ssRNA]
Kd [1]: 235 nM

CTACTACCCCCACCCTCACAACCTTTTTTTTTTTTTTT [ssDNA]
Kd ([1]; single-stranded DNA): 684 nM

GTACCCGGGGATCCTCTAGAGTCGACCTGCAGGCATGCAAGCTTGGCACTGGCCGTCGTTTTACAAC / GTTGTAAAACGACGGCCAGTGCCTTTTCCCAGCCTCAATCTCATCACTCTAGAGGATCCCCGGGTAC [Bubble (D9:D11)]
binding result [2]: binds more weakly
